We go through one molecule from publication PMC11612315, “GLP-1 and its derived peptides mediate pain relief through direct TRPV1 inhibition without affecting thermoregulation” (Experimental & Molecular Medicine, 2024).

The data set in a line: ELISA of total GLP-1 in serum after glucose. Format: in vivo, mouse.

Consider `OC[C@H]1OC(O)[C@H](O)[C@@H](O)[C@@H]1O` (some centres unmarked) [glucose], for which the “Total GLP-1 levels in serum” value (after glucose 2 g/kg i.p., n = 3–4 per time point) is given as “significant increase in GLP-1 levels”. For the setting “postinjection of glucose 2 g/kg i.p.”, the “Time of peak of serum total GLP-1 levels” value was 30 min.
